Where a chain is given by its changes, count along the chain named. This is one part of the list. For some of these results: At the low end of the ranking, values are background and their order means little. For some of these results: The exact form of the protein is not confirmed.
Legend:
Settings in all cases: yeast three-hybrid, YBZ-1, SC-Leu-His + 0.5 mM 3-AT, 4 days
[1] = target: T1, PUM1 PUF domain R2-VFQ R3-THE R4-TFR N899V + Y900F + C935T + R936H + Q939E + N971T + H972F + Q975R (UniProt Q14671)
T1 sequence: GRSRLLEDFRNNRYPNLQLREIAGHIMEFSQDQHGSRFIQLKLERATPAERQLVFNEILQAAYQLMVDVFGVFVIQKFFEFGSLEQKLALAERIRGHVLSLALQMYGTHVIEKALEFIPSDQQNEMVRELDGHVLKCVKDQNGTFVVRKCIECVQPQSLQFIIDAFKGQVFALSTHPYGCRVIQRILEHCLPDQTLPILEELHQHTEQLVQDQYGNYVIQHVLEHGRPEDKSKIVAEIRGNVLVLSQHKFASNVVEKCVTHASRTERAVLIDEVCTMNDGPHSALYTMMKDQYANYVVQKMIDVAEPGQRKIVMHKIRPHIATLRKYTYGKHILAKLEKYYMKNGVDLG

[2] = target: T2, PUM1 PUF domain R3-THE R4-TFR C935T + R936H + Q939E + N971T + H972F + Q975R (UniProt Q14671)
T2 sequence: T1 sequence with V72N, F73Y

[3] = target: T3, PUM1 PUF domain R3-THE R4-TFR R7-NPG C935T + R936H + Q939E + N971T + H972F + Q975R + S1079N + N1080P + E1083G (Homo sapiens) (UniProt Q14671)
T3 sequence: T1 sequence with V72N, F73Y, S252N, N253P, E256G

[4] = target: T4, PUM1 PUF domain R5-PHQ R6-SWD C1007P + R1008H + N1043S + Y1044W + Q1047D (UniProt Q14671)
T4 sequence: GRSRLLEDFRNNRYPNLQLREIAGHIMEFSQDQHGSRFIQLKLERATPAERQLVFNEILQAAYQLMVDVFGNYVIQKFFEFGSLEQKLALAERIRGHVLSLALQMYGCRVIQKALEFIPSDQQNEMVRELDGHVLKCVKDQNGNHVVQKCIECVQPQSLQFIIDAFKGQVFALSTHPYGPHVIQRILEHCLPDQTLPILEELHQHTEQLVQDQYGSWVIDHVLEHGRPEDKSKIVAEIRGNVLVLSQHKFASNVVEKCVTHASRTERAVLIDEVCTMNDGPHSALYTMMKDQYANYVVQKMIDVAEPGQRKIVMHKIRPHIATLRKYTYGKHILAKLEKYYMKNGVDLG

[5] = target: T5, PUM1 PUF domain R3-THE R4-TFR R7-NPG C935T + R936H + Q939E + N971T + H972F + Q975R + S1079N + N1080P + E1083G (UniProt Q14671)
T5 sequence: T1 sequence with V72N, F73Y, S252N, N253P, E256G

[6] = target: T6, PUM1 PUF domain R6-SWD R7-NPG N1043S + Y1044W + Q1047D + S1079N + N1080P + E1083G (Homo sapiens) (UniProt Q14671)
T6 sequence: T4 sequence with P180C, H181R, S252N, N253P, E256G

| Sequence | binding signal (log2 enrichment (interaction score)) [1] | binding signal (log2 enrichment (interaction score)) [2] | binding signal (log2 enrichment (interaction score)) [3] | binding signal (log2 enrichment (interaction score)) [4] | binding signal (log2 enrichment (interaction score)) [5] | binding signal (log2 enrichment (interaction score)) [6] |
| --- | --- | --- | --- | --- | --- | --- |
| GGCUAGAACUAGUGGAUCCCCCGGCGCCCGGCGGCUCGAGCCCGGGUAAGGCCAGGUCGUCUGCAUGCCGCCGGGCGCCAUGCCUGCAGGUCGACUCUAGAAAACAUG | -5.47 | -7.36 | – | – | – | – |
| GGCUAGAACUAGUGGAUCCCCCGGCGCCCGGCGGCUCGAGCCCGGGUAAGUGUCUGUUGUCUGCAUGCCGCCGGGCGCCAUGCCUGCAGGUCGACUCUAGAAAACAUG | -5.49 | -8.03 | – | – | – | – |
| GGCUAGAACUAGUGGAUCCCCCGGCGCCCGGCGGCUCGAGCCCGGGUAAGAUAAAGUAGUCUGCAUGCCGCCGGGCGCCAUGCCUGCAGGUCGACUCUAGAAAACAUG | -5.64 | -7.72 | – | – | – | – |
| GGCUAGAACUAGUGGAUCCCCCGGCGCCCGGCGGCUCGAGCCCGGGUAAGUUUACCAAGUCUGCAUGCCGCCGGGCGCCAUGCCUGCAGGUCGACUCUAGAAAACAUG | -5.57 | -6.89 | – | – | – | – |
| GGCUAGAACUAGUGGAUCCCCCGGCGCCCGGCGGCUCGAGCCCGGGUAAGUUUACUUGGUCUGCAUGCCGCCGGGCGCCAUGCCUGCAGGUCGACUCUAGAAAACAUG | -5.75 | -7.7 | – | – | – | – |
| GGCUAGAACUAGUGGAUCCCCCGGCGCCCGGCGGCUCGAGCCCGGGUAAGUGCAAGUGGUCUGCAUGCCGCCGGGCGCCAUGCCUGCAGGUCGACUCUAGAAAACAUG | -5.61 | -7.21 | – | – | – | – |
| GGCUAGAACUAGUGGAUCCCCCGGCGCCCGGCGGCUCGAGCCCGGGUAAGUUAACGCAGUCUGCAUGCCGCCGGGCGCCAUGCCUGCAGGUCGACUCUAGAAAACAUG | -5.09 | -6.74 | < -0.91 | – | – | – |
| GGCUAGAACUAGUGGAUCCCCCGGCGCCCGGCGGCUCGAGCCCGGGUAAGCGAAUGUAGUCUGCAUGCCGCCGGGCGCCAUGCCUGCAGGUCGACUCUAGAAAACAUG | -5.72 | -5.84 | – | – | – | – |
| GGCUAGAACUAGUGGAUCCCCCGGCGCCCGGCGGCUCGAGCCCGGGUAAGAUGAAGGAGUCUGCAUGCCGCCGGGCGCCAUGCCUGCAGGUCGACUCUAGAAAACAUG | -5.69 | -7.06 | -0.85 | – | – | – |
| GGCUAGAACUAGUGGAUCCCCCGGCGCCCGGCGGCUCGAGCCCGGGUAAGAAUACGUCGUCUGCAUGCCGCCGGGCGCCAUGCCUGCAGGUCGACUCUAGAAAACAUG | -5.88 | -6.48 | – | – | – | – |
| GGCUAGAACUAGUGGAUCCCCCGGCGCCCGGCGGCUCGAGCCCGGGUAAGUGUACCUAGUCUGCAUGCCGCCGGGCGCCAUGCCUGCAGGUCGACUCUAGAAAACAUG | -5.41 | -3.63 | – | – | – | – |
| GGCUAGAACUAGUGGAUCCCCCGGCGCCCGGCGGCUCGAGCCCGGGUAAGUGGAAGACGUCUGCAUGCCGCCGGGCGCCAUGCCUGCAGGUCGACUCUAGAAAACAUG | -5.33 | < -8.64 | -1.17 | < -8.59 | – | – |
| GGCUAGAACUAGUGGAUCCCCCGGCGCCCGGCGGCUCGAGCCCGGGUAAGUAGAAAUAGUCUGCAUGCCGCCGGGCGCCAUGCCUGCAGGUCGACUCUAGAAAACAUG | -5.97 | -7.11 | -1.73 | -2.76 | – | – |
| GGCUAGAACUAGUGGAUCCCCCGGCGCCCGGCGGCUCGAGCCCGGGUAAGCCGAAUUAGUCUGCAUGCCGCCGGGCGCCAUGCCUGCAGGUCGACUCUAGAAAACAUG | -5.73 | < -7.25 | -0.15 | -7.02 | – | – |
| GGCUAGAACUAGUGGAUCCCCCGGCGCCCGGCGGCUCGAGCCCGGGUAAGUUGCAGUAGUCUGCAUGCCGCCGGGCGCCAUGCCUGCAGGUCGACUCUAGAAAACAUG | -4.93 | -6.68 | < -0.97 | -8.05 | – | – |
| GGCUAGAACUAGUGGAUCCCCCGGCGCCCGGCGGCUCGAGCCCGGGUAAGUGUUCGCUGUCUGCAUGCCGCCGGGCGCCAUGCCUGCAGGUCGACUCUAGAAAACAUG | -5.85 | -6.46 | – | – | -2.7 | – |

Given as labelled records: entries from further up.
GGCUAGAACUAGUGGAUCCCCCGGCGCCCGGCGGCUCGAGCCCGGGUAAGGCCAGGUCGUCUGCAUGCCGCCGGGCGCCAUGCCUGCAGGUCGACUCUAGAAAACAUG
  binding signal (log2 enrichment (interaction score)) [1] = -5.47
  binding signal (log2 enrichment (interaction score)) [2] = -7.36
GGCUAGAACUAGUGGAUCCCCCGGCGCCCGGCGGCUCGAGCCCGGGUAAGUUAACGCAGUCUGCAUGCCGCCGGGCGCCAUGCCUGCAGGUCGACUCUAGAAAACAUG
  binding signal (log2 enrichment (interaction score)) [1] = -5.09
  binding signal (log2 enrichment (interaction score)) [2] = -6.74
  binding signal (log2 enrichment (interaction score)) [3] = < -0.91
GGCUAGAACUAGUGGAUCCCCCGGCGCCCGGCGGCUCGAGCCCGGGUAAGUGUUCGCUGUCUGCAUGCCGCCGGGCGCCAUGCCUGCAGGUCGACUCUAGAAAACAUG
  binding signal (log2 enrichment (interaction score)) [1] = -5.85
  binding signal (log2 enrichment (interaction score)) [2] = -6.46
  binding signal (log2 enrichment (interaction score)) [5] = -2.7

(continued)

| Sequence | binding signal (log2 enrichment (interaction score)) [1] | binding signal (log2 enrichment (interaction score)) [2] | binding signal (log2 enrichment (interaction score)) [3] | binding signal (log2 enrichment (interaction score)) [4] | binding signal (log2 enrichment (interaction score)) [5] | binding signal (log2 enrichment (interaction score)) [6] |
| --- | --- | --- | --- | --- | --- | --- |
| GGCUAGAACUAGUGGAUCCCCCGGCGCCCGGCGGCUCGAGCCCGGGUAAGUUGAUGUAGUCUGCAUGCCGCCGGGCGCCAUGCCUGCAGGUCGACUCUAGAAAACAUG | -4.5 | -6.9 | – | -8.47 | -2.68 | – |
| GGCUAGAACUAGUGGAUCCCCCGGCGCCCGGCGGCUCGAGCCCGGGUAAGUAGAUGUUGUCUGCAUGCCGCCGGGCGCCAUGCCUGCAGGUCGACUCUAGAAAACAUG | -5.57 | < -7.57 | – | < -7.1 | – | – |
| GGCUAGAACUAGUGGAUCCCCCGGCGCCCGGCGGCUCGAGCCCGGGUAAGUGGCAAUAGUCUGCAUGCCGCCGGGCGCCAUGCCUGCAGGUCGACUCUAGAAAACAUG | < -5.05 | -7.07 | – | -4.69 | – | – |
| GGCUAGAACUAGUGGAUCCCCCGGCGCCCGGCGGCUCGAGCCCGGGUAAGGGGGAGUAGUCUGCAUGCCGCCGGGCGCCAUGCCUGCAGGUCGACUCUAGAAAACAUG | < -6.69 | -7.99 | – | < -8.73 | -2.79 | – |
| GGCUAGAACUAGUGGAUCCCCCGGCGCCCGGCGGCUCGAGCCCGGGUAAGUAUAAGUUGUCUGCAUGCCGCCGGGCGCCAUGCCUGCAGGUCGACUCUAGAAAACAUG | -6.45 | -6.58 | -1.39 | -7.48 | – | – |
| GGCUAGAACUAGUGGAUCCCCCGGCGCCCGGCGGCUCGAGCCCGGGUAAGUCUAGAUAGUCUGCAUGCCGCCGGGCGCCAUGCCUGCAGGUCGACUCUAGAAAACAUG | -6.18 | -7.25 | – | < -7.56 | – | – |
| GGCUAGAACUAGUGGAUCCCCCGGCGCCCGGCGGCUCGAGCCCGGGUAAGUUGUAGUAGUCUGCAUGCCGCCGGGCGCCAUGCCUGCAGGUCGACUCUAGAAAACAUG | -5.22 | -7.21 | < -1.94 | < -7.01 | – | – |
| GGCUAGAACUAGUGGAUCCCCCGGCGCCCGGCGGCUCGAGCCCGGGUAAGAUAACGACGUCUGCAUGCCGCCGGGCGCCAUGCCUGCAGGUCGACUCUAGAAAACAUG | -5.55 | -5.15 | < -1.76 | – | – | – |
| GGCUAGAACUAGUGGAUCCCCCGGCGCCCGGCGGCUCGAGCCCGGGUAAGAUCACGAAGUCUGCAUGCCGCCGGGCGCCAUGCCUGCAGGUCGACUCUAGAAAACAUG | -6.01 | -6.73 | -0.77 | – | – | – |
| GGCUAGAACUAGUGGAUCCCCCGGCGCCCGGCGGCUCGAGCCCGGGUAAGUUAACAUCGUCUGCAUGCCGCCGGGCGCCAUGCCUGCAGGUCGACUCUAGAAAACAUG | -4.93 | < -7.21 | – | – | -2.04 | -1.24 |
| GGCUAGAACUAGUGGAUCCCCCGGCGCCCGGCGGCUCGAGCCCGGGUAAGUCCGGGUAGUCUGCAUGCCGCCGGGCGCCAUGCCUGCAGGUCGACUCUAGAAAACAUG | -5.33 | < -7.57 | < -1.23 | – | – | – |
| GGCUAGAACUAGUGGAUCCCCCGGCGCCCGGCGGCUCGAGCCCGGGUAAGUGCUCACUGUCUGCAUGCCGCCGGGCGCCAUGCCUGCAGGUCGACUCUAGAAAACAUG | -6.12 | < -7.22 | -1.84 | – | – | – |
| GGCUAGAACUAGUGGAUCCCCCGGCGCCCGGCGGCUCGAGCCCGGGUAAGUAGACCGAGUCUGCAUGCCGCCGGGCGCCAUGCCUGCAGGUCGACUCUAGAAAACAUG | -3.58 | -7.43 | – | -7.8 | – | – |
| GGCUAGAACUAGUGGAUCCCCCGGCGCCCGGCGGCUCGAGCCCGGGUAAGUUUUCAUAGUCUGCAUGCCGCCGGGCGCCAUGCCUGCAGGUCGACUCUAGAAAACAUG | -5.71 | -7.61 | < -0.94 | < -7.22 | – | – |
| GGCUAGAACUAGUGGAUCCCCCGGCGCCCGGCGGCUCGAGCCCGGGUAAGAAUUCAUAGUCUGCAUGCCGCCGGGCGCCAUGCCUGCAGGUCGACUCUAGAAAACAUG | -5.71 | -7.42 | – | -7.95 | – | – |

From publication PMC8384837
